By UniProt entry, the sequences of proteins in these tests, tags left out.
UniProt Q0JBA9, entry or part of it: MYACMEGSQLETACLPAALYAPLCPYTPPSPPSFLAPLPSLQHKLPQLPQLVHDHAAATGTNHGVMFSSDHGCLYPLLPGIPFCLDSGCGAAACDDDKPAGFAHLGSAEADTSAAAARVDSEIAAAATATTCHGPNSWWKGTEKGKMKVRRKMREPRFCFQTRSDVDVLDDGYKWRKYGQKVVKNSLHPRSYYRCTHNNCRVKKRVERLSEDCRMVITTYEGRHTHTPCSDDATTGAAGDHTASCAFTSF

Some of the results follow.
What follows are sequences tested against OsWRKY34 (Oryza sativa, UniProt Q0JBA9 1-250) (assay: protein-binding microarray (RPBM); PBS, 2% BSA, 51.3 ng/ul salmon testes DNA, 50 uM zinc acetate, 200 nM TF, 25 C, 1 h; high values mean tight binding). Conditions: protein: recombinant; tags: N-terminal polyhistidine and DsRed monomer fusion (pET32a); label: CyDye5-dUTP incorporated in the synthesized complementary strand; 3' TTTTT single-stranded linker to array surface; dsDNA, one strand shown.
Summary of the method: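 Polyhistidine-tagged DsRed fusions of transcription factors, joined at the N-terminus, were expressed in E. coli BL21-CodonPlus and isolated on Ni–NTA. They were incubated at 200 nM for 1 h at 25 °C on a custom Agilent array, double-stranded and BSA-blocked, in PBS with 2% BSA, salmon testes DNA and 50 µM zinc acetate. The binding signal is per-feature fluorescence intensity (arbitrary units) read on an Axon 4000B scanner after washing.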
With “ATGGAGTACAGTTGCGCTGTTTGTTTCAGCCTTTCAGGTGCGGAGTCACCTAGTGCAG” the binding signal was 9290 fluorescence intensity (a.u.). For “AATCTATGCCATTATAATTTGGTACCACAATGATTGATCACGGAGTCACCTAGTGCAG”, the binding signal was 9040 fluorescence intensity (a.u.). In the case of “AGACGTTTTGACTTTGGTACTGCTTTAAGTTTGACCAAATCGGAGTCACCTAGTGCAG”, the binding signal is reported as 9960 fluorescence intensity (a.u.). In the case of “GACCTAGCTTACTACCGTACCGACCTGCATGCTAGCTACCCGGAGTCACCTAGTGCAG”, the binding signal is reported as 8690 fluorescence intensity (a.u.). For “GTCTGCTGTCTGCACTCTGGTGATCTAATGTATCATTTTCCGGAGTCACCTAGTGCAG”, the binding signal was 11400 fluorescence intensity (a.u.). “TCCAGCTGCTGCATCCACCTCACTGCCGTCGCCGCCGCCGCGGAGTCACCTAGTGCAG” was tested, and the binding signal was 8400 fluorescence intensity (a.u.). With “TCTGCGAGGAAGAACCCATTCAGATTACGCTGCATTTTTTCGGAGTCACCTAGTGCAG” the binding signal was 8660 fluorescence intensity (a.u.). In the case of “GTCCCATGCAAATGCAACAATATTTTCTGCATGCATTTTTCGGAGTCACCTAGTGCAG”, the binding signal is reported as 8230 fluorescence intensity (a.u.). In the case of “CGCCCTCCGCCGCTCGCCCGCCGACGCCGCCGCTCCGCCTCGGAGTCACCTAGTGCAG”, the binding signal is reported as 10500 fluorescence intensity (a.u.). In the case of “GTTTCTCTCCGTTTCGTTTCGGGCCTGTTCACTTTGATGTCGGAGTCACCTAGTGCAG”, the binding signal is reported as 9210 fluorescence intensity (a.u.). With “GAGAACCTTCAGATTTTTTTTCTTTTCTCTTCGGTAACCACGGAGTCACCTAGTGCAG” the binding signal was 9500 fluorescence intensity (a.u.). With “ATATGCTATTTTCACGTTCCATTAATTATGTCATAAACTGCGGAGTCACCTAGTGCAG” the binding signal was 9090 fluorescence intensity (a.u.). “CTGAGTTCCCAAGAGTTCTCTTTCTGCACATAGTCCCTACCGGAGTCACCTAGTGCAG” was tested, and the binding signal was 8960 fluorescence intensity (a.u.). “TTCTAGTATTCCCCTTGAAATTGGCATGGTTATTTCATCCCGGAGTCACCTAGTGCAG” was tested, and the binding signal was 10500 fluorescence intensity (a.u.). With “GCCGCTAACCCTTGTACTGCGCCGCCGCCTGCTGCACTGACGGAGTCACCTAGTGCAG” the binding signal was 14700 fluorescence intensity (a.u.). “GTCCGCGTCTCATCAGAATAAGCAGCTAGCAGCATCTGCACGGAGTCACCTAGTGCAG” was tested, and the binding signal was 9090 fluorescence intensity (a.u.). For “ACCATTATACACTCACATTTTTCAATATTTTTTCTTAATTCGGAGTCACCTAGTGCAG”, the binding signal was 9040 fluorescence intensity (a.u.). With “GCGAACTCCTCCGCCGTGTTCCGAATCTCGCCAAAGCTTGCGGAGTCACCTAGTGCAG” the binding signal was 9510 fluorescence intensity (a.u.). For “ATAAACCAGTGACTAATTTATTGCCTGCTGCACACGCGCTCGGAGTCACCTAGTGCAG”, the binding signal was 8990 fluorescence intensity (a.u.). For “TAAACACCATTTCCACCCCTACATACACTCACACACACGTCGGAGTCACCTAGTGCAG”, the binding signal was 9420 fluorescence intensity (a.u.). In the case of “TGATGATTTAACTGTGTTGCATGAATTCATTCCTATTTGACGGAGTCACCTAGTGCAG”, the binding signal is reported as 8400 fluorescence intensity (a.u.). With “GTGTGTGTATGACAGGTGGGACCATATATTAATAGTGTAGCGGAGTCACCTAGTGCAG” the binding signal was 8230 fluorescence intensity (a.u.). In the case of “AATCTAACTTCTCTATATTCTCCTGTGCTTACAACTCATACGGAGTCACCTAGTGCAG”, the binding signal is reported as 8860 fluorescence intensity (a.u.). With “GTAAGAAAAAGTCAACGGTATCATCTATTGAAAAACGTAGCGGAGTCACCTAGTGCAG” the binding signal was 8150 fluorescence intensity (a.u.). For “TTCGGGGATTGAATTTAGGCTATCTGTTGGAGAGAGGGGTCGGAGTCACCTAGTGCAG”, the binding signal was 8050 fluorescence intensity (a.u.). With “GTGTGTTGGAGCTGCCGGTGTGTGGGTGGGGTTATTTTTTCGGAGTCACCTAGTGCAG” the binding signal was 25100 fluorescence intensity (a.u.). With “TCTGTAGCTCGCTATTCTTTTCTCTTCTTTTATTTCCTTGCGGAGTCACCTAGTGCAG” the binding signal was 8850 fluorescence intensity (a.u.). “ACTCAACCCAGTACACACACTCCACCTAATCTTCTTCTCCCGGAGTCACCTAGTGCAG” was tested, and the binding signal was 10100 fluorescence intensity (a.u.). For “TACCCTTATACTTTTTTATTACTTGCCTGCTACTCTACTTCGGAGTCACCTAGTGCAG”, the binding signal was 11300 fluorescence intensity (a.u.). “ATCCTGCATCATCTTCCACGGCTCTCCAACCCCAAAAAATCGGAGTCACCTAGTGCAG” was tested, and the binding signal was 8460 fluorescence intensity (a.u.). For “GACCAAGGCAGAGAATTTGCCACTGCTTTTTGCTATACCTCGGAGTCACCTAGTGCAG”, the binding signal was 8210 fluorescence intensity (a.u.). In the case of “TCTATCTCTCGTCAACGCTTGCTCGCCATCGCATCATGTACGGAGTCACCTAGTGCAG”, the binding signal is reported as 10500 fluorescence intensity (a.u.). In the case of “ATTAGTACGCAAAGCTGCTCTAAGGCCTGGTTCTTTTTCTCGGAGTCACCTAGTGCAG”, the binding signal is reported as 9430 fluorescence intensity (a.u.). “GACTGCATGTCTGCATCTGTGTGCCCTCATCGACGTTCTCCGGAGTCACCTAGTGCAG” was tested, and the binding signal was 9860 fluorescence intensity (a.u.). For “AGCTCCAAATGATTTTTTTCTCCTAAACTGTTTGTCTAATCGGAGTCACCTAGTGCAG”, the binding signal was 9720 fluorescence intensity (a.u.). For “GTCTCATCTGCATGCTGAGTGTTTATAGTTTATCCGGAACCGGAGTCACCTAGTGCAG”, the binding signal was 9300 fluorescence intensity (a.u.). For “ACGTGCCTACTTGACTTGCTGACCTACATTGCCGACTGCCCGGAGTCACCTAGTGCAG”, the binding signal was 8300 fluorescence intensity (a.u.). For “GTCACAATTGGGCCTCCATAAGCCCATCTGAGCCCACACACGGAGTCACCTAGTGCAG”, the binding signal was 8160 fluorescence intensity (a.u.). “ACCACTCTACTAATTCCTTTTGGTTAACGATTCGAAGCTCCGGAGTCACCTAGTGCAG” was tested, and the binding signal was 8650 fluorescence intensity (a.u.). With “TCCCGTATTTTTCTTACACTTTTTTTTTAAAAAAAAATACCGGAGTCACCTAGTGCAG” the binding signal was 9140 fluorescence intensity (a.u.). With “TACTATGCTACCCTATCAAAATCTTGGTAGTACCCAAAGTCGGAGTCACCTAGTGCAG” the binding signal was 8610 fluorescence intensity (a.u.). “AAAAGCAGGAGGATTGGTCTTGGGTGGGTGGTTGCCACTTCGGAGTCACCTAGTGCAG” was tested, and the binding signal was 9400 fluorescence intensity (a.u.).

Reference: article PMC7819943, “Rice protein-binding microarrays: a tool to detect cis-acting elements near promoter regions in rice”
